Test results taken from article PMC3828145.

Protein sequences, listed by entry. Tags and fused reporters are not part of them.
UniProt P53552: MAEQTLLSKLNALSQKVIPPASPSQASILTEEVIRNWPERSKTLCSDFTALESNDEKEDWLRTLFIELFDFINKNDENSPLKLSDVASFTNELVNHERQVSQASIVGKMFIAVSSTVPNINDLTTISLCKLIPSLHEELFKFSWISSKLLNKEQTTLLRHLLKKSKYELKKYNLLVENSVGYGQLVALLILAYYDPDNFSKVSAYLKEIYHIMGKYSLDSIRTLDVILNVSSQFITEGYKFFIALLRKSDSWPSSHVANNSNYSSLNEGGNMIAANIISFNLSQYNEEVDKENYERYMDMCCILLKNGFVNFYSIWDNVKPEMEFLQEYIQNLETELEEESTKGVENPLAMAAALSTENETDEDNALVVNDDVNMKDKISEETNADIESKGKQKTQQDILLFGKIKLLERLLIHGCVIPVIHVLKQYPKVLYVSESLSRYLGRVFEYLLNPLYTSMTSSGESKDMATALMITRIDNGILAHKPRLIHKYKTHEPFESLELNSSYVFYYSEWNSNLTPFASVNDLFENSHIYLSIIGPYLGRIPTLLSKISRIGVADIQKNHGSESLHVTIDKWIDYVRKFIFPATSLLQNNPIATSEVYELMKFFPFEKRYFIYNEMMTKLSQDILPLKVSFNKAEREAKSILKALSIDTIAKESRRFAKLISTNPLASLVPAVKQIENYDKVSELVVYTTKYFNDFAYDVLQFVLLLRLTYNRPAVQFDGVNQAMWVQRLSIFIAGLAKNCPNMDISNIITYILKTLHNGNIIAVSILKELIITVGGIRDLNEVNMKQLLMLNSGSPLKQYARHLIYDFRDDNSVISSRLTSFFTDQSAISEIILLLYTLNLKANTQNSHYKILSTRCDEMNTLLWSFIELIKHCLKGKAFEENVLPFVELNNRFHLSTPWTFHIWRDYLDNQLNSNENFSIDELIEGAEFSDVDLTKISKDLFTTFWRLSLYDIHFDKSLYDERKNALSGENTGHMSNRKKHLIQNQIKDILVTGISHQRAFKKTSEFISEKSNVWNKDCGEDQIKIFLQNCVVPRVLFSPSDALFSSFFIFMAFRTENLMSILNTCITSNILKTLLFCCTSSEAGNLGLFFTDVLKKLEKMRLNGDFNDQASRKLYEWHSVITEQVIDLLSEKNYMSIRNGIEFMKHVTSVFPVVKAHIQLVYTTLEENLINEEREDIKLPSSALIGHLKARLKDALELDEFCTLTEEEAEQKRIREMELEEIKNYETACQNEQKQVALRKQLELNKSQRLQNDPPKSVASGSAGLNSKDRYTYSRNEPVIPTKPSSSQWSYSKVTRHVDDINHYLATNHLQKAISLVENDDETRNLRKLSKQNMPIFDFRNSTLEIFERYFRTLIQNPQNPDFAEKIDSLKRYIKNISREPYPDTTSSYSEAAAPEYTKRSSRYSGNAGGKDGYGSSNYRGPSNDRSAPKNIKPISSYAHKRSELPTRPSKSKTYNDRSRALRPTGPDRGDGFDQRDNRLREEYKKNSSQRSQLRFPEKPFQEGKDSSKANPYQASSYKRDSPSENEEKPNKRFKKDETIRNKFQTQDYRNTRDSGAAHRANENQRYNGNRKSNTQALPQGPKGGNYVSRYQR

Experiments:
[1] = biological target: T1, Hpr1-TAP (C-terminally TAP-tagged Hpr1) (S. cerevisiae) (UniProt P17629); assay: affinity purification with mass spectrometry; two steps (IgG, then Ni affinity) from a strain with Hpr1-TAP and Mft1-His6 under high salt (1000 mM NaCl); Coomassie stain of Ni eluates, identity of each protein verified by mass spectrometry; Western blot against Yra1
T1 sequence: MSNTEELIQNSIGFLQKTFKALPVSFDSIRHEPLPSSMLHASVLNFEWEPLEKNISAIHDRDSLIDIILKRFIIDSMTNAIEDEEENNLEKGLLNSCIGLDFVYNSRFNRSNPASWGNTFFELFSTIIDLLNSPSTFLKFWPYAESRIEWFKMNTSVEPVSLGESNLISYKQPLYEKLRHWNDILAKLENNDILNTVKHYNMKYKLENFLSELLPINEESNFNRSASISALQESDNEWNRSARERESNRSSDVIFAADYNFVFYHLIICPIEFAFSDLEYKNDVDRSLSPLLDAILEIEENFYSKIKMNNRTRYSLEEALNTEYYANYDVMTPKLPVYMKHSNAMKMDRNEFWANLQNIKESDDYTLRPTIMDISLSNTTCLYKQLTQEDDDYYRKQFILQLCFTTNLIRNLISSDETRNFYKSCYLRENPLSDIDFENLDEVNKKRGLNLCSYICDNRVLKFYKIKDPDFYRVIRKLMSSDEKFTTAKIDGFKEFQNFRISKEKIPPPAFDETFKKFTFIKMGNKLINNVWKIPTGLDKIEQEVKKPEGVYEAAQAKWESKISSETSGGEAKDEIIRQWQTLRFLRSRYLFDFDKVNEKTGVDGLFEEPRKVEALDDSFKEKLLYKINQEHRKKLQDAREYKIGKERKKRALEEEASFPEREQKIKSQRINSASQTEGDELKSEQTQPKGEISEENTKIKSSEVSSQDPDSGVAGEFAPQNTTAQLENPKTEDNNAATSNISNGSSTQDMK

[2] = biological target: T1, Hpr1-TAP (C-terminally TAP-tagged Hpr1) (S. cerevisiae); assay: affinity purification with mass spectrometry; two steps (IgG, then Ni affinity) from a strain with Hpr1-TAP and Mft1-His6 under low salt (100 mM NaCl); Coomassie stain of Ni eluates, identity of each protein verified by mass spectrometry; Western blot against Yra1

B2: Gbp2 (protein, UniProt P25555 1-427)
chain: MERELGMYGNDRSRSRSPVRRRLSDDRDRYDDYNDSSSNNGNGSRRQRRDRGSRFNDRYDQSYGGSRYHDDRNWPPRRGGRGRGGSRSFRGGRGGGRGRTLGPIVERDLERQFDATKRNFENSIFVRNLTFDCTPEDLKELFGTVGEVVEADIITSKGHHRGMGTVEFTKNESVQDAISKFDGALFMDRKLMVRQDNPPPEAAKEFSKKATREEIDNGFEVFIINLPYSMNWQSLKDMFKECGHVLRADVELDFNGFSRGFGSVIYPTEDEMIRAIDTFNGMEVEGRVLEVREGRFNKRKNNDRYNQRREDLEDTRGTEPGLAQDAAVHIDETAAKFTEGVNPGGDRNCFIYCSNLPFSTARSDLFDLFGPIGKINNAELKPQENGQPTGVAVVEYENLVDADFCIQKLNNYNYGGCSLQISYARRD
binding [1]: no binding (only high salt (1000 mM NaCl))
binding [2]: binds

B3: Hrb1 (protein, UniProt P38922 1-454)
chain: MSDQERGSENNNRSRSRSRSPVRRRMSDDHGYERDNHLSRRSGNYNGRRKFADTYRGSRDRGEYRGGRERSDYRERERFNNRDNPRSRDRYDDRRRGRDVTGRYGNRRDDYPRSFRSRHNTRDDSRRGGFGSSGARGDYGPLLARELDSTYEEKVNRNYSNSIFVGNLTYDSTPEDLTEFFSQIGKVVRADIITSRGHHRGMGTVEFTNSDDVDRAIRQYDGAFFMDRKIFVRQDNPPPSNNIKERKALDRGELRHNRKTHEVIVKNLPASVNWQALKDIFKECGNVAHADVELDGDGVSTGSGTVSFYDIKDLHRAIEKYNGYSIEGNVLDVKSKESVHNHSDGDDVDIPMDDSPVNEEARKFTENVVGGGERNRLIYCSNLPFSTAKSDLYDLFETIGKVNNAELRYDSKGAPTGIAVVEYDNVDDADVCIERLNNYNYGGCDLDISYAKRL
binding [1]: no binding (only high salt (1000 mM NaCl))
binding [2]: binds

B4: Mft1-His6 (C-terminally His6-tagged Mft1) (protein, UniProt P33441 1-392)
chain: MPLSQKQIDQVRTKVHYSEVDTPFNKYLDILGKVTKLTGSIINGTLSNDDSKIEKLTEQNISQLKESAHLRFLDLQSSIDTKKVADENWETCQQETLAKLENLKDKLPDIKSIHSKLLLRIGKLQGLYDSVQVINREVEGLSEGRTSLVVTRAEWEKELGTDLVKFLIEKNYLKLVDPGLKKDSSEERYRIYDDFSKGPKELESINASMKSDIENVRQEVSSYKEKWLRDAEIFGKITSIFKEELLKRDGLLNEAEGDNIDEDYESDEDEERKERFKRQRSMVEVNTIENVDEKEESDHEYDDQEDEENEEEDDMEVDVEDIKEDNEVDGESSQQEDNSRQGNNEETDKETGVIEEPDAVNDAEEADSDHSSRKLGGTTSDFSASSSVEEVK
binding [1]: binds
binding [2]: binds

More lines, main results first:

binding [1]: binds
binding [2]: binds
Molecule: Tho2 (from UniProt P53552 1-1597)

binding [2]: binds
B1: Sub2 (protein, UniProt Q07478 1-446)
chain: MSHEGEEDLLEYSDNEQEIQIDASKAAEAGETGAATSATEGDNNNNTAAGDKKGSYVGIHSTGFKDFLLKPELSRAIIDCGFEHPSEVQQHTIPQSIHGTDVLCQAKSGLGKTAVFVLSTLQQLDPVPGEVAVVVICNARELAYQIRNEYLRFSKYMPDVKTAVFYGGTPISKDAELLKNKDTAPHIVVATPGRLKALVREKYIDLSHVKNFVIDECDKVLEELDMRRDVQEIFRATPRDKQVMMFSATLSQEIRPICRRFLQNPLEIFVDDEAKLTLHGLQQYYIKLEEREKNRKLAQLLDDLEFNQVIIFVKSTTRANELTKLLNASNFPAITVHGHMKQEERIARYKAFKDFEKRICVSTDVFGRGIDIERINLAINYDLTNEADQYLHRVGRAGRFGTKGLAISFVSSKEDEEVLAKIQERFDVKIAEFPEEGIDPSTYLNN
binding [1]: no binding (only high salt (1000 mM NaCl))

binding [1]: binds
binding [2]: binds
B5: Tex1 (protein, UniProt P53851 1-422)
chain: MSTIGAVDILNQKTITSEVAASVTSKYLQSTFSKGNTSHIEDKRFIHVSSRSHSRFTSTPITPNEILSLKFHVSGSSMAYSRMDGSLTVWFIKDASFDKSVEVYIPDCCGSDKLATDLSWNPTSLNQIAVVSNSSEISLLLINEKSLTASKLRTLSLGSKTKVNTCLYDPLGNWLLAATKSEKIYLFDVKKDHSSVCSLNISDISQEDNDVVYSLAWSNGGSHIFIGFKSGYLAILKAKHGILEVCTKIKAHTGPITEIKMDPWGRNFITGSIDGNCYVWNMKSLCCELIINDLNSAVTTLDVCHLGKILGICTEDEMVYFYDLNSGNLLHSKSLANYKTDPVLKFYPDKSWYIMSGKNDTLSNHFVKNEKNLITYWKDMFDNTMIEKRRKNNGGGNNHNKRTSKNTDRIGKDRPSRFNSKK

binding [1]: binds
binding [2]: binds
B6: Thp2 (protein, UniProt O13539 1-261)
chain: MTKEEGRTYFESLCEEEQSLQESQTHLLNILDILSVLADPRSSDDLLTESLKKLPDLHRELINSSIRLRYDKYQTREAQLLEDTKTGRDVAAGVQNPKSISEYYSTFEHLNRDTLRYINLLKRLSVDLAKQVEVSDPSVTVYEMDKWVPSEKLQGILEQYCAPDTDIRGVDAQIKNYLDQIKMARAKFGLENKYSLKERLSTLTKELNHWRKEWDDIEMLMFGDDAHSMKKMIQKIDSLKSEINAPSESYPVDKEGDIVLE

Results are given in words; binding and its absence hold for the method and conditions named. Binding seen in cells or lysates may run through a third protein. These calls come from enrichment with a bait or labelling near it, and not all partners need be listed. For some assays here: A no says only that the protein was not detected with the bait. Sequences can lack the tags named with a protein. One block for each molecule: values may come before it.
